Source: ChEMBL document CHEMBL3988442, “University of Dundee, Small-Polar-MMV Screening Library” (2021).

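Assay of Toxoplasma gondii numbers, read through their beta-galactosidase reporter with a colour substrate. Tested at 50 µM. The record gives no direction; the compounds picked for IC50 retests had high values, so higher reads as fewer parasites. Of about 18,000 compounds tested this way, about 170 (0.94%) reached 50% or more in at least one test.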

The filed quantity is “Percent Effect” (%).
The controls that fix the scale are not given in the record; negative values are as filed.
The compounds are a random part of those screened.

{"smiles": "O=C(CNC(=O)c1ccccc1)NCc1ccncc1", "effect": -4.275}
{"smiles": "Cc1cc(C[S+]([O-])CC(=O)NC2CCCC2)no1", "stereo": "configuration not stated", "effect": -1.576}
{"smiles": "COC(=O)[C@@H]1C[C@@H](O)CN1Cc1cn2ccccc2n1", "effect": -3.87}
{"smiles": "CN(C)C(=O)CCCn1nnc(-c2ccsc2)n1", "effect": -8.606}
{"smiles": "O=C1CN(CC2CCNC2)CCN1", "stereo": "configuration not stated", "effect": -6.23}
{"smiles": "O=C(OCC1CC1)C1=CN2CCS(=O)(=O)N=C2C=C1", "effect": -1.785}
{"smiles": "CCN1CCCN(C(=O)c2ccc(C)c(OC)c2)CC1", "effect": -8.511}
{"smiles": "Cc1cnn(CC(C)NCCC(=O)NC(C)C)c1", "stereo": "configuration not stated", "effect": 14.37}
{"smiles": "CC(C)n1ccc(C(=O)NCCS(=O)(=O)N(C)C)n1", "effect": -2.621}
{"smiles": "CC1CCCN(C(=O)c2csc(S(N)(=O)=O)c2)C1", "stereo": "configuration not stated", "effect": -8.486}
{"smiles": "Cc1[nH]ncc1S(=O)(=O)N1CCOC(C)C1", "stereo": "configuration not stated", "effect": -5.987}
{"smiles": "COc1ccc(CC(=O)Nc2ccn(C)n2)cc1OC", "effect": 3.998}
{"smiles": "O=C(Cn1cc(Br)ccc1=O)NCC1CCOC1", "stereo": "configuration not stated", "effect": -15.74}
{"smiles": "N[C@@H]1CCOc2c(F)ccc(F)c21", "effect": 1.812}
{"smiles": "OCC1CCN(Cc2nc(C3CC3)no2)CC1", "effect": 18.14}
{"smiles": "CC1COC2(CCN(C(=O)c3ccc(Cl)s3)CC2)O1", "stereo": "configuration not stated", "effect": -18.14}
{"smiles": "NS(=O)(=O)N1CCN(c2cc(F)ccc2F)CC1", "effect": 8.956}
{"smiles": "COCCNC(=O)Nc1cc(Cl)ccc1OC", "effect": 51.47}
{"smiles": "CCC(C)Oc1cc(CN)ccn1", "stereo": "configuration not stated", "effect": 2.543}
{"smiles": "CCn1ccc(CN2CC[C@](C)(O)C(C)(C)C2)n1", "effect": 9.173}
{"smiles": "c1ccc(CN2CCN(CCC3OCCO3)CC2)nc1", "effect": 2.926}
{"smiles": "OC(c1ccccc1)c1nccs1", "stereo": "configuration not stated", "effect": -9.346}
{"smiles": "CCCc1nnc(NCc2cccnc2)o1", "effect": -5.41}
{"smiles": "CC(CN[C@@H](C)CO)c1ccccc1", "stereo": "some centres not stated", "effect": 5.632}
{"smiles": "CCC1CN(C(=O)c2ccc3ccccc3n2)CCO1", "stereo": "configuration not stated", "effect": 6.649}
{"smiles": "C[n+]1ccn(C(=O)N2CCCCCC2)c1.[I-]", "effect": -9.012}
{"smiles": "CCn1cc(NC(=O)CN2CCC(C)CC2)ccc1=O", "effect": -0.131}
{"smiles": "c1cc2c(cc1CNc1nnc(C3CC3)o1)OCCO2", "effect": -4.266}
{"smiles": "O=C(NCC1COCCO1)N(Cc1cccs1)C1CC1", "stereo": "configuration not stated", "effect": -5.818}
{"smiles": "Cc1cnc(NC(=O)c2cnccn2)c(Br)c1", "effect": 3.749}
{"smiles": "CCCS(=O)(=O)NC1CCN(Cc2nnc(C)o2)CC1", "effect": -3.079}
{"smiles": "O=C(c1cc(C2CC2)n[nH]1)N1CCC2(CCCO2)CC1", "effect": 64.63}
{"smiles": "CCCN(CCC)C(=O)CN1CCCN(C(C)=O)CC1", "effect": 1.35}
{"smiles": "CCCN1CCC(NCC(O)c2ccco2)CC1", "stereo": "configuration not stated", "effect": -1.594}
{"smiles": "COc1ccc(S(=O)(=O)N2CC(N)C2)cc1", "effect": -2.663}
{"smiles": "O=S(=O)(CC(O)CNCc1ccccn1)c1cccs1", "stereo": "configuration not stated", "effect": 20.65}
{"smiles": "NCCCc1ccc2c(c1)OCCO2", "effect": -4.601}
{"smiles": "Cc1ccsc1CNC(=O)Cn1cnc(C#N)c1C#N", "effect": -13.97}
{"smiles": "COc1cc(CN)cc(Cl)c1OCC(N)=O", "effect": -5.833}
{"smiles": "N#CCCNC(=O)CN1CCCCC1", "effect": -2.214}
{"smiles": "COc1ccnc(N2CCN(c3ccccn3)CC2)n1", "effect": 6.852}
{"smiles": "CNc1ccnc(N2CCCC3(CN(C)C(=O)O3)C2)n1", "stereo": "configuration not stated", "effect": 17.33}
{"smiles": "CCn1ncnc1CN1CCC2(CCN(C)C2)CC1", "effect": 28.33}
{"smiles": "CN(CCCNC(=O)c1cnccn1)CC(F)(F)F", "effect": -0.07762}
{"smiles": "N[C@H]1CCOc2c(F)cc(F)cc21", "effect": -12.62}
{"smiles": "CSC(C)C(=O)N(C)Cc1ccccn1", "stereo": "configuration not stated", "effect": -1.313}
{"smiles": "CO[C@@H]1CNC[C@H]1O", "effect": -8.601}
{"smiles": "CC(CO)NC(=O)Nc1nc(-c2ccccc2)ns1", "stereo": "configuration not stated", "effect": 11.83}

6 of the entries, repeated:

| SMILES | effect |
|---|---|
| `CN(CCCNC(=O)c1cnccn1)CC(F)(F)F` | -0.07762% |
| `CNc1ccnc(N2CCCC3(CN(C)C(=O)O3)C2)n1` (configuration not stated) | 17.33% |
| `CO[C@@H]1CNC[C@H]1O` | -8.601% |
| `COc1ccc(S(=O)(=O)N2CC(N)C2)cc1` | -2.663% |
| `O=C(OCC1CC1)C1=CN2CCS(=O)(=O)N=C2C=C1` | -1.785% |
| `Cc1ccsc1CNC(=O)Cn1cnc(C#N)c1C#N` | -13.97% |